# Not every detail of the peptide structures is certain; ends, links or a residue may be inferred.
# Test system: Haemonchus contortus
# Experiment: In vivo nematode test Haemonchus contortus/sheep
# Details: sheep infected experimentally with Haemonchus contortus, treated after prepatency period; pure active compound applied orally and/or intravenously; dose at which nematode egg excretion with the faeces stopped completely
# Method: In vivo nematode test Haemonchus contortus/sheep
# The degree of effectiveness is determined by quantitatively determinating the nematode eggs excreted with the faeces before and after the treatment.
smiles,measurement,value
"C[C@@H](OC(=O)[C@H](Cc1ccccc1)N(C)Cc1ccccc1)C(=O)N(C)[C@@H](Cc1ccccc1)C(=O)O[C@H](Cc1ccccc1)C(=O)N(C)[C@@H](Cc1ccccc1)C(=O)O[C@H](C)C(=O)N(C)[C@@H](Cc1ccccc1)C(=O)O[C@H](Cc1ccccc1)C(=O)OC(C)(C)C [Example 3, Bzl-L-MePhe-D-Lac-L-MePhe-D-PheLac-MePhe-D-Lac-L-MePhe-D-PheLac-O^t Bu]",Dosis effectiva,10 mg/kg
